Paper PMC5705807
These are yes or no findings as the source states them, for the method shown. In cells and extracts the contact can be indirect. Where a sequence is shown, tags or fusion partners need not be part of it.

Target: Myc2-PGM2 (tandem Myc epitope fusion of PGM2) (Toxoplasma gondii)
Assay: co-IP; lysate of extracellular parasites (1x PBS, 0.25% NP-40, 400 mM NaCl, Benzonase, protease inhibitors); Myc2-PGM2 captured on 9E10 anti-Myc magnetic beads, three washes with lysis buffer, eluate blotted with PRP1 antiserum

B1: parafusin-related protein 1 (PRP1) (protein, UniProt Q95WU0 1-637)
chain: MGAKASRMRTKEEACRGSANPSHKGLPADQILSRPTTAYQDQKPGTSGLRKKTKVFMQKDYLANFAQSVFNCLPEEEKKGGTLLVSGDGRFFSHEAIYEICSIAAGNGVGRVWIGLNGLASTPACSAIIRERENGICFGGFLLTASHNPGGIDEDFGVKYDTANGAPGYEALMNEVWEKSKTISTIKYAKLPKFSIDKLGVQVNIDGAFQVEVIDPIEDWLKLMKEAFHFPAIKRLLALPHFSFVYDSMHGVSGPYAEKLFIEEFGAKRECLMRQDPLPDFGGHHPDPNLTYAEELVAKMKVLHPDQVDASTPLFGAAGDGDCDRNMILGRGFFVTPSDSVALIALYAEKCIPYFFVDKATGKGGLTGLARSMPTSRALDNVAKKLNKDVYETPTGWKYFTNLMDASRISICGEESFGTGSVHVREKDGLWAVLAWLSILAYRNGCMGDVEKERELLQEGKSVDVSPPATKETDFVSVQQIVEEFWKEYGRNFYCRYDFENKDSASAHEMLQALEELSKSSPAEITGKVASHVDENLLKEMEIDSMDWFKYTDPVDKQVSDHQGVRLFLKGGSRIIWRLSGTGSTGATIRVYMERYEPDASKVLQDERTALKDIAAFALQFCDMKKYIGTETPTVIT
B1 was tested, and the binding was “no binding”.
